# Source: publication PMC4015952
# Protein sequences, listed by entry. Tags and fused reporters are not part of them. Residues count along the entry.
# UniProt Q99IB8, residues 384-750: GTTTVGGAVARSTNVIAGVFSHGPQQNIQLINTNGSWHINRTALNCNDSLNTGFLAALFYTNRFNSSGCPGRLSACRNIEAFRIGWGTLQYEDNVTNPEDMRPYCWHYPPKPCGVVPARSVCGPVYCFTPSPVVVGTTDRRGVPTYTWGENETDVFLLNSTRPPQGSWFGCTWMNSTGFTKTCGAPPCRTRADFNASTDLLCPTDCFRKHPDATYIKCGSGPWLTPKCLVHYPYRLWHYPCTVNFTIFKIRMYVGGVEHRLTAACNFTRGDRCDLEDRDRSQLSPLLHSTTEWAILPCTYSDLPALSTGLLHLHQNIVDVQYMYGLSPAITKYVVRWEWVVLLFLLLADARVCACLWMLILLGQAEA
# No constants are given. Whether binding was seen depends on the method and setting. In cells and extracts the contact can be indirect. Some entries that bind do so weakly or less than the wild type.
# B1: AIMP1/p43 expressed from a plasmid in HEK 293 cells (protein, UniProt Q12904 1-312)
# chain: MANNDAVLKRLEQKGAEADQIIEYLKQQVSLLKEKAILQATLREEKKLRVENAKLKKEIEELKQELIQAEIQNGVKQIPFPSGTPLHANSMVSENVIQSTAVTTVSSGTKEQIKGGTGDEKKAKEKIEKKGEKKEKKQQSIAGSADSKPIDVSRLDLRIGCIITARKHPDADSLYVEEVDVGEIAPRTVVSGLVNHVPLEQMQNRMVILLCNLKPAKMRGVLSQAMVMCASSPEKIEILAPPNGSVPGDRITFDAFPGEPDKELNPKKKIWEQIQPDLHTNDECVATYKGVPFEVKGKGVCRAQTMSNSGIK
# Biological target: GST-E2 fusion protein (HCV E2) (hepatitis C virus (strain not stated for this construct)) (UniProt Q99IB8)
# Assay: pull-down; purified GST or GST-E2 added to RIPA lysate of HEK 293 cells expressing AIMP1/p43, 4°C; glutathione sepharose 4B beads; HNGT buffer (20 mM HEPES pH 7.5, 150 mM NaCl, 10% glycerol, 0.1% Triton X-100); western blot; only the target purified
binder,measurement,value
B1,binding,binds
